First the molecules themselves.
T1: human E-selectin coated on the plate of the competition binding ELISA (human) (UniProt P16581)
T1 sequence (looked up): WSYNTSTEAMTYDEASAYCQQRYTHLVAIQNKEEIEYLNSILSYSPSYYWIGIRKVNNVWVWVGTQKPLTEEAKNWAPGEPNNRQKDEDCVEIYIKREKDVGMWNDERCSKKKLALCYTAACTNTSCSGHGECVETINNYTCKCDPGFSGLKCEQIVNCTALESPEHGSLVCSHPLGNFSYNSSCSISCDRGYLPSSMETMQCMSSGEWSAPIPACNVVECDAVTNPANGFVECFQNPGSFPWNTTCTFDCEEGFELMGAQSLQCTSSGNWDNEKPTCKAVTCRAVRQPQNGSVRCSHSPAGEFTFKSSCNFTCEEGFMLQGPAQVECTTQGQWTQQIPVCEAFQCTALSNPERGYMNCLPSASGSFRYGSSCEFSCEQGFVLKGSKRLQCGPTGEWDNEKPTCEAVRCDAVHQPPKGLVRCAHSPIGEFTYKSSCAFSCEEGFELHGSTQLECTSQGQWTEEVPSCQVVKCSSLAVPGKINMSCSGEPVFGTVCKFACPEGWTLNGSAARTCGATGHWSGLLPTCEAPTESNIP

B1: optimized anti-E-selectin antibody 1282 (antibody, human IgG1, kappa, V domains shown)
VH: EVQLVESGGGLVQPGGSLRLSCAASGYAIRSAYMHWVRQAPGKGLEWVARIDPANGNTIYVDSVEGRFTISADNAKNSAYLQMNSLRAEDTAVYYCAMDLYSTSEYWGQGTLVTVSS
VL: DIQMTQSPSSLSASVGDRVTITCKTSQNIERYLNWYQQKPGKAPKLLIYAASSLQSGVPSRFSGSGSGTDFTLTISSLQPEDFATYFCLQDNAWPLTFGQGTKVEIKR
B2: optimized anti-E-selectin antibody 1448 (antibody, human IgG1, kappa, V domains shown)
VH: B1 VH with E65K, G66E
VL: B1 VL
B3: optimized anti-E-selectin antibody 1444 (antibody, human IgG1, kappa, V domains shown)
VH: B1 VH with E65T
VL: B1 VL
B4: optimized anti-E-selectin antibody 1284 (antibody, human IgG1, kappa, V domains shown)
VH: B1 VH with D62E
VL: B1 VL
B5: humanized anti-E-selectin antibody 0841 (antibody, human IgG1, kappa, V domains shown)
VH: B1 VH with A28N, A32S, V61A, D62E, S63K, V64F, E65K, G66I
VL: B1 VL with E30N, A50N, S52N, S56T, A93S
B6: humanized anti-E-selectin antibody 0978 (antibody, human IgG1, kappa, V domains shown)
VH: B1 VH with A28N, A32S, E65K
VL: B1 VL with E30N, A93S

Substitutions are numbered along the chain they refer to. No constants are given. Whether binding was seen depends on the method and setting. Some results given as binding are weak or reduced against the parent protein; the word gives no strength.

The first assay has as its target T1, human E-selectin coated on the plate of the competition binding ELISA (human). In words: competition ELISA (Biotin-164 competitive ELISA) on plate-coated human E-selectin; competitor: biotinylated antibody 0164, OD450; forced degradation samples T0, T2, T4 weeks at 40 C in Tris, His or Glu buffer. Background: In an ELISA, binding on a coated surface is turned into a signal by an enzyme label.
Take B1: the binding result is listed as “binds”.
Turning to B2, the binding result was “binds”.
On to B3, for which the binding entry is recorded as “binds”.
On the same count and under the same terms, next, B4: “binds”.

For another assay the target is unchanged. Kind of assay: competition ELISA on plate-coated human E-selectin; competitor: biotinylated antibody 0164, streptavidin-HRP, OD450; samples stored 0, 2, 4 weeks at 40 C in Tris, His or Glu buffer.
Take B5: the binding result is “binds”.

The target is the same in another assay. Kind of assay: competition binding ELISA against biotinylated 0164.
Take B5: the binding entry is given as “binds”.
In the case of B1, the binding result is given as “binds”.
Still for that read-out and setting: the entry for B2 is “binds”.
As to B3, the binding entry was “binds”.
Same read-out and setting: the entry for B6 is “binds”; for B4 it is “binds”.

The values above are taken from patent US20240076386A1.
